# Measurements published in the supplement of paper PMC8728848.
# Some of the results follow.
# B1: GS7807I-bvu-563-22-563 (Bacteroides vulgatus) (protein)
# chain: IFSSCTDDFEKLNTSNIQVDPADLPFAAQCTEPMTYCYPPQQNMFQFWTNLTIDLYGGYFMTPNGNFTNGDMGENRGHSGGMYENYYLHIFNNTRRIIAQCDASGERGLSGVMRIVQAYGTLMTTDAYGPIPYSSILSGENEVYFEFDSQKDLYKAMLEDLSTAITDISAMGADEIAKLKSFDCWCNGDKDLWVKIANTMKLRMALRLSKRETEAGNAGMNLKAIATEAAQNTLATVNKDILIDKSLENEMWLMFNWGDCGFNANLVTIMSGTKDPRQPLYMTLNTGDIKNEAGTTTVAANSQYLGIRFASGLPAKPNSWGNFSGWIQGNNGSSYSMPLPIMKAAEAYFLLAEAKLRWDIGSESVKNLYENGIRVSMTNELAYRGAYAGIKEYPEGAVDAYINGTSTQIDYTDPIKAELSTPAVNKLSVKWDESASNEEKLERIITQKWLALFPLSTEGWAEQRRTGYPRFFPAFVNESNGAVNTEEGVRRVIYSSQAYDANAKGVEGGIKLLDEENSSKFGISGDKGGTHLWWDNADKGNF
# How the values were obtained:
# Assay in all cases: glycan array binding signal (z-score within array); higher = stronger binding
# Details in all cases: glycan notation: IUPAC condensed, linker removed
# [1] = molecular target: Gal(b1-3)GlcNAc(b1-2)Man(a1-3)[Gal(b1-3)GlcNAc(b1-2)Man(a1-6)]Man(b1-4)GlcNAc(b1-4)[Fuc(a1-6)]GlcNAc
# How it was run: (§1)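 Glycan array data came from 3228 arrays in the Consortium for Functional Glycomics database, and only arrays with an available protein sequence were kept. Glycan names were put into IUPAC-condensed notation, and columns mapping to the same glycan were averaged. The binding signal is a within-array Z-score, averaged across arrays of one protein sequence run at different concentrations or buffers and across linkers. A negative Z-score can be read as non-binding.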
# [2] = molecular target: Gal(b1-3)GlcNAc(b1-2)Man(a1-3)[GlcNAc(b1-4)][Gal(b1-3)GlcNAc(b1-2)Man(a1-6)]Man(b1-4)GlcNAc(b1-4)GlcNAc
# How it was run: as §1
# [3] = molecular target: Gal(b1-3)GlcNAc(b1-2)[Gal(b1-3)GlcNAc(b1-6)]Man(a1-6)[Gal(b1-3)GlcNAc(b1-2)Man(a1-3)]Man(b1-4)GlcNAc(b1-4)GlcNAc
# How it was run: as §1
# [4] = molecular target: Gal(b1-3)GlcNAc(b1-3)Gal(b1-3)GlcNAc
# How it was run: as §1
# [5] = molecular target: Gal(b1-3)GlcNAc(b1-3)Gal(b1-4)Glc
# How it was run: as §1
# [6] = molecular target: Gal(b1-3)GlcNAc(b1-3)Gal(b1-4)GlcNAc
# How it was run: as §1
# [7] = molecular target: Gal(b1-3)GlcNAc(b1-3)Gal(b1-4)GlcNAc(b1-2)Man(a1-3)[Gal(b1-3)GlcNAc(b1-3)Gal(b1-4)GlcNAc(b1-2)Man(a1-6)]Man(b1-4)GlcNAc(b1-4)GlcNAc
# How it was run: as §1
# [8] = molecular target: Gal(b1-3)GlcNAc(b1-3)Gal(b1-4)GlcNAc(b1-2)[Gal(b1-3)GlcNAc(b1-3)Gal(b1-4)GlcNAc(b1-6)]Man(a1-6)[Gal(b1-3)GlcNAc(b1-3)Gal(b1-4)GlcNAc(b1-2)Man(a1-3)]Man(b1-4)GlcNAc(b1-4)[Fuc(a1-6)]GlcNAc
# How it was run: as §1
# [9] = molecular target: Gal(b1-3)GlcNAc(b1-3)Gal(b1-4)GlcNAc(b1-3)Gal(b1-4)GlcNAc(b1-2)[Gal(b1-3)GlcNAc(b1-3)Gal(b1-4)GlcNAc(b1-3)Gal(b1-4)GlcNAc(b1-6)]Man(a1-6)[Gal(b1-3)GlcNAc(b1-3)Gal(b1-4)GlcNAc(b1-3)Gal(b1-4)GlcNAc(b1-2)Man(a1-3)]Man(b1-4)GlcNAc(b1-4)[Fuc(a1-6)]GlcNAc
# How it was run: as §1
# [10] = molecular target: Gal(b1-3)GlcNAc(b1-3)Gal(b1-4)GlcNAc(b1-6)[Gal(b1-3)GlcNAc(b1-3)]Gal(b1-4)Glc
# How it was run: as §1
# [11] = molecular target: Gal(b1-3)GlcNAc(b1-3)Gal(b1-4)[Fuc(a1-3)]GlcNAc
# How it was run: as §1
# [12] = molecular target: Gal(b1-3)GlcNAc(b1-3)Gal(b1-4)[Fuc(a1-3)]GlcNAc(b1-6)[Gal(b1-3)GlcNAc(b1-3)]Gal(b1-4)Glc
# How it was run: as §1
# [13] = molecular target: Gal(b1-3)GlcNAc(b1-3)GalNAc
# How it was run: as §1
# [14] = molecular target: Gal(b1-3)GlcNAc(b1-6)Gal(b1-4)GlcNAc
# How it was run: as §1
# [15] = molecular target: Gal(b1-3)GlcNAc(b1-6)GalNAc
# How it was run: as §1
# [16] = molecular target: Gal(b1-3)GlcNAc(b1-6)[Gal(b1-3)]GalNAc
# How it was run: as §1
# [17] = molecular target: Gal(b1-3)GlcNAc6S
# How it was run: as §1
# [18] = molecular target: Gal(b1-3)[Fuc(a1-4)]GlcNAc
# How it was run: as §1
# [19] = molecular target: Gal(b1-3)[Fuc(a1-4)]GlcNAc(b1-2)Man
# How it was run: as §1
# [20] = molecular target: Gal(b1-3)[Fuc(a1-4)]GlcNAc(b1-2)Man(a1-3)[Gal(b1-3)[Fuc(a1-4)]GlcNAc(b1-2)Man(a1-6)]Man(b1-4)GlcNAc(b1-4)[Fuc(a1-6)]GlcNAc
# How it was run: as §1
# [21] = molecular target: Gal(b1-3)[Fuc(a1-4)]GlcNAc(b1-3)Gal(b1-3)[Fuc(a1-4)]GlcNAc
# How it was run: as §1
# [22] = molecular target: Gal(b1-3)[Fuc(a1-4)]GlcNAc(b1-3)Gal(b1-4)[Fuc(a1-3)]GlcNAc
# How it was run: as §1
# [23] = molecular target: Gal(b1-3)[Fuc(a1-4)]GlcNAc(b1-6)GalNAc
# How it was run: as §1
# [24] = molecular target: Gal(b1-3)[GlcNAc(b1-6)]GalNAc
# How it was run: as §1
# [25] = molecular target: Gal(b1-3)[Neu5Ac(a2-6)]GalNAc
# How it was run: as §1
# [26] = molecular target: Gal(b1-3)[Neu5Ac(a2-6)]GlcNAc(b1-4)Gal(b1-4)Glc
# How it was run: as §1
# [27] = molecular target: Gal(b1-3)[Neu5Ac(b2-6)]GalNAc
# How it was run: as §1
# [28] = molecular target: Gal(b1-4)Gal
# How it was run: as §1
# [29] = molecular target: Gal(b1-4)GalNAc(a1-3)[Fuc(a1-2)]Gal(b1-4)GlcNAc
# How it was run: as §1
# [30] = molecular target: Gal(b1-4)GalNAc(b1-3)[Fuc(a1-2)]Gal(b1-4)GlcNAc
# How it was run: as §1
binder,measurement,setting,value
B1,glycan array binding signal (z-score),[1],0.362
same,glycan array binding signal (z-score),[2],3.75
same,glycan array binding signal (z-score),[3],0.978
same,glycan array binding signal (z-score),[4],-0.81
same,glycan array binding signal (z-score),[5],-1.02
same,glycan array binding signal (z-score),[6],0.449
same,glycan array binding signal (z-score),[7],2.15
same,glycan array binding signal (z-score),[8],-0.647
same,glycan array binding signal (z-score),[9],1.91
same,glycan array binding signal (z-score),[10],-0.329
same,glycan array binding signal (z-score),[11],-0.396
same,glycan array binding signal (z-score),[12],-0.309
same,glycan array binding signal (z-score),[13],1.2
same,glycan array binding signal (z-score),[14],-0.658
same,glycan array binding signal (z-score),[15],-0.545
same,glycan array binding signal (z-score),[16],0.482
same,glycan array binding signal (z-score),[17],2.24
same,glycan array binding signal (z-score),[18],-0.08
same,glycan array binding signal (z-score),[19],0.116
same,glycan array binding signal (z-score),[20],2.12
same,glycan array binding signal (z-score),[21],-0.772
same,glycan array binding signal (z-score),[22],0.127
same,glycan array binding signal (z-score),[23],-0.343
same,glycan array binding signal (z-score),[24],-0.484
same,glycan array binding signal (z-score),[25],0.238
same,glycan array binding signal (z-score),[26],-0.151
same,glycan array binding signal (z-score),[27],-0.964
same,glycan array binding signal (z-score),[28],-0.487
same,glycan array binding signal (z-score),[29],0.28
same,glycan array binding signal (z-score),[30],-0.561

# Quoted at random: 2 records from the list
binder,measurement,setting,value
B1,glycan array binding signal (z-score),[18],-0.08
same,glycan array binding signal (z-score),[1],0.362
